Measurements as given in PubChem BioAssay AID504834 (National Center for Advancing Translational Sciences (NCATS), 2011).
Hit rate of the full screen: of about 320,000 compounds, about 22,000 (6.9%) were called active. Inconclusive results, whose numbers are uncertain, are shown with a selection of clear calls. Calls come from the whole dose curve; as a rule, active = well fitted inhibition curve with a large enough effect; inconclusive = small, poorly fitted or top-dose-only effect, or another doubt; inactive = no such curve, though single readings can be large or run the other way. Potencies beside an inconclusive call are fits to weak or partial responses and may not hold up. More than one record can exist for a structure, and the calls need not agree.
% is set by controls: 0 for no effect and ±100 for the full control effect; potency is the fitted concentration of half-maximal effect.

Assay: Primary qHTS for delayed death inhibitors of the malarial parasite plastid, 96 hour incubation
Details: P. falciparum luciferase reporter growth; series mostly up to 28.7 µM; activity change, negative = inhibition: at the top concentration
Procedure, shortened: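 Readout is luminescence from an integrated firefly luciferase in P. falciparum. Red cells, 2% hematocrit and 0.05% parasitemia final, were cultured with compound through two parasite generations (96 hours) at 37 C, 5% CO2.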
With `Cc1nnc(NC2=NCCC2)o1` the “activity change, negative = inhibition” value was inactive: 29.5%.
In the case of `N#CC1=C(N)SC(N)=C(C#N)C1CCC1CCCCC1`, the activity change, negative = inhibition was inactive: 3.52% [at 5.75 µM].
For `Cc1cccc(NC(=O)C(=O)NNC(=O)c2ccc(C(C)(C)C)cc2)c1`, the Potency was inconclusive: 5.22 µM [inhibitor, partial curve, poor fit].
For `O=C(Cn1cc(C(=O)C(F)(F)F)c2ccccc21)NCc1ccco1`, the Potency was inconclusive: 4.15 µM [inhibitor, single point].
In the case of `CCC1=NN(C(=O)c2ccc([N+](=O)[O-])cc2)C(O)(c2ccccc2)C1` (stereo unspecified), the Potency was inconclusive: 18.5 µM [inhibitor, single point].
For `Cc1ccc2cc(C#N)c(N3CCCN(C(=O)C4CCCO4)CC3)nc2c1` (stereo unspecified), the Potency was inconclusive: 2.08 µM [inhibitor, full curve].
For `O=C(OCC(=O)c1cccc2ccccc12)c1ccc(CO)cc1`, the “activity change, negative = inhibition” value was inactive: 148%.
In the case of `CCOC(=O)c1sc(NC(=O)C(CC)Sc2nnc3c4ccccc4n(CC)c3n2)nc1C` (stereo unspecified), the Potency was inconclusive: 18.5 µM [inhibitor, single point].
For `COc1ccccc1CNCC(=O)Nc1ccc(N2CCOCC2)cc1`, the “activity change, negative = inhibition” value was inactive: 1.22%.
For `Cn1/c(=N/NC(=O)c2cccc(OC(F)F)c2)sc2ccccc21`, the Potency was inconclusive: 18.5 µM [inhibitor, single point].
With `C#CCOCCOCCOCCNc1nc(N2CCN(C(=O)[C@H]([C@@H](C)O)n3cc(CCCCN)nn3)CC2)nc(N2CCN(C(=O)[C@H]([C@@H](C)CC)n3cc(CCCCN)nn3)CC2)n1` the “activity change, negative = inhibition” value was inactive: 68.2%.
For `Cc1ccc(O)c(N=Cc2ccc(C)s2)c1`, the “activity change, negative = inhibition” value was inactive: 0%.
For `CCOc1cc(N2CCOCC2)c(OCC)cc1NC(=O)CN1C(=O)NC2(CCCCC2)C1=O`, the “activity change, negative = inhibition” value was inactive: -25.7%.
In the case of `Cc1cccc(NC(=S)NCc2cccs2)c1`, the “activity change, negative = inhibition” value was inactive: 24.6%.
In the case of `CCN1CCN(C(=O)C2CCC(=O)N(CCCN3CCCC3=O)C2)CC1` (stereo unspecified), the “activity change, negative = inhibition” value was inactive: 161%.
In the case of `O=S(=O)(/N=C(\c1ccccc1)N1CCOCC1)c1cccs1`, the “activity change, negative = inhibition” value was inactive: -20.1%.
In the case of `CC(C)(C)n1ncc2c(=O)n(CC(=O)NCc3ccco3)cnc21`, the “activity change, negative = inhibition” value was inactive: 12.5%.
In the case of `Cc1ccc(N(C(C)C(=O)Nc2c(C)n(C)n(-c3ccccc3)c2=O)S(C)(=O)=O)cc1C` (stereo unspecified), the Potency was inconclusive: 0.0029 µM [inhibitor, partial curve, poor fit].
For `O=C(NCCc1c[nH]c2ccccc12)C(=O)NCC1CCCO1` (stereo unspecified), the Potency was inconclusive: 0.738 µM [inhibitor, full curve].
For `O=C(Nc1ccccc1N1CCCC1)c1ccc(Br)o1`, the “activity change, negative = inhibition” value was inactive: -11.9%.
For `CC(C)(C)NC(=O)C(c1ccc(O)cc1)N(C(=O)Cn1nnc(-c2ccc(F)cc2)n1)c1ccccc1F` (stereo unspecified), the Potency was inconclusive: 0.0294 µM [inhibitor, full curve, poor fit].
For `COc1ccc(C(=O)/C=C/c2ccccc2)c(O)c1`, the “activity change, negative = inhibition” value was inactive: 53.2%.
For `Cc1cccc(-c2nc(CN3CCN(C(=O)C4CCCO4)CC3)cs2)c1` (stereo unspecified), the “activity change, negative = inhibition” value was inactive: -5.33%.
With `Cc1cccc(Cn2c(=O)n(-c3ccc(CC(=O)NCc4ccco4)cc3)c(=O)c3sccc32)c1` the Potency was inconclusive: 7.38 µM [inhibitor, partial curve, poor fit].
In the case of `CC(=O)c1ccc(NC(=O)CCS(=O)(=O)c2ccc3c(c2)n(C)c(=O)c(=O)n3C)cc1`, the Potency was active: 9.28 µM.
For `CCCNC(=O)Cn1c(=O)n(C)c2ccccc21`, the “activity change, negative = inhibition” value was inactive: -19.7%.
With `Cc1c(C(=O)OCc2nc3ccsc3c(=O)[nH]2)oc2ccccc12` the “activity change, negative = inhibition” value was inactive: -6.18%.
For `Clc1ccccc1Cn1nnc2c(N3CCOCC3)nc(C3CC3)nc21`, the Potency was inconclusive: 2.94 µM [inhibitor, partial curve, poor fit].
In the case of `O=C(COc1ccccc1)Nc1ccc2c(c1)Cc1cc(NC(=O)COc3ccccc3)ccc1-2`, the Potency was inconclusive: 18.5 µM [inhibitor, single point].
In the case of `COc1ccccc1C(=O)Nc1ccc(S(=O)(=O)N2CCCC2)cc1`, the “activity change, negative = inhibition” value was inactive: 81.8%.
For `O=C(Cc1ccc(Cl)cc1)Nc1cccc(-c2nnc(-c3ccco3)o2)c1`, the “activity change, negative = inhibition” value was inactive: -29.3%.
For `CCN(CC)C(=O)Oc1cc2c(-c3cc4cccc(OC)c4o3)cc(=O)oc2cc1C`, the Potency was active: 10.4 µM.
With `CC(C)COc1ccc(CN=C(N)N=C(N)N)cc1Cl` the Potency was inconclusive: 2.62 µM [inhibitor, partial curve, poor fit].
For `Cc1cc(NC(=O)CSc2ccc(-c3ccc(F)cc3)nn2)no1`, the Potency was inconclusive: 11.7 µM [inhibitor, single point].
In the case of `O=S(=O)(N=S(N1CCCCC1)N1CCCCC1)c1ccccc1`, the Potency was inconclusive: 14.7 µM [inhibitor, single point].
For `COc1cc(/C=C(/C#N)C(=O)Nc2ccc(C)cc2)ccc1Oc1nc(Cl)ncc1F`, the “activity change, negative = inhibition” value was inactive: -3.44%.
With `COc1ccc(CCCc2nnc(SCC(=O)N/N=C\c3ccc(O)c(OC)c3)o2)cc1C` the Potency was inconclusive: 18.5 µM [inhibitor, single point].
With `CC1=C(C(=O)OCc2ccccc2)C(c2cccnc2)n2ncnc2N1` (stereo unspecified) the Potency was inconclusive: 18.5 µM [inhibitor, single point].
With `CS(=O)(=O)c1nc(S(=O)(=O)c2ccc(Cl)cc2)c(NCCCn2ccnc2)s1` the Potency was active: 5.86 µM.
With `Cc1cccc(C(=O)NNC(=O)c2ccc(NC(=O)C(C)(C)C)cc2)c1` the “activity change, negative = inhibition” value was inactive: -31.8%.
With `COc1ccc(CN2CCn3ncc(C(=O)Nc4cc(C)cc(C)c4)c3C2=O)cc1` the Potency was inconclusive: 2.33 µM [inhibitor, full curve, poor fit].
With `COC(=O)c1ccc2c(=O)n(Cc3ccc(C(=O)NCCCN4CCC(C)CC4)cc3)c(=S)[nH]c2c1` the Potency was inconclusive: 13.1 µM [inhibitor, single point].
With `Cc1ccsc1C(=O)N/N=C/C=C/c1ccccc1[N+](=O)[O-]` the “activity change, negative = inhibition” value was inactive: 88.8%.
With `COc1ccccc1N1CCN(C(=O)c2cc3cc(Cl)ccc3[nH]2)CC1` the Potency was inconclusive: 13.1 µM [inhibitor, single point].
For `Cc1cccc(COCC(Cc2ccccc2)N2CCN(C(=O)c3ccc(C(F)(F)F)cc3)CCC2=O)c1` (stereo unspecified), the Potency was inconclusive: 10.4 µM [inhibitor, single point].
With `CC1Cc2ccccc2N1C(=O)CSc1nncs1` (stereo unspecified) the Potency was inconclusive: 18.5 µM [inhibitor, single point].
With `Fc1cc(F)c(C2SCCN2C(=S)Nc2cccc(C(F)(F)F)c2)c(F)c1` (stereo unspecified) the Potency was active: 2.94 µM.
With `CN(C)c1ccc(/C=N\NC(=O)c2cccc3cc[nH]c23)cc1` the Potency was inconclusive: 18.5 µM [inhibitor, single point].
For `CC(=O)NC(Cc1ccc(N(CCCl)CCCl)cc1)C(=O)O` (stereo unspecified), the Potency was inconclusive: 11.7 µM [inhibitor, single point].
With `Cc1cc(C)cc(N(CC(=O)N2CC=C(c3ccccc3)CC2)S(=O)(=O)c2c(C)noc2C)c1` the Potency was active: 6.57 µM.
For `COC(=O)c1c(C(=O)OC)c(-c2ccc(C)cc2)n2c1CCC2`, the Potency was inconclusive: 13.1 µM [inhibitor, partial curve, poor fit].
For `O=C1NC(=Nc2cccc(O)c2)S/C1=C\c1cccnc1`, the Potency was active: 6.57 µM.
In the case of `CN(C(=S)NC(=O)c1ccc(Cl)cc1)C1CCCCC1`, the Potency was active: 10.4 µM.
With `O=C(NCC(c1ccco1)N1CCN(c2ccccc2)CC1)OCc1ccccc1` (stereo unspecified) the Potency was active: 4.15 µM.
With `C#CCOCCOCCOCCNc1nc(N2CCN(C(=O)CCCCCCCCCCNC(=O)[C@H](CCCCN)n3cc(C[C@@H](C)CC)nn3)CC2)nc(N2CCN(C(=O)CCCCCCCCCCNC(=O)[C@@H]([C@H](C)O)n3cc(C)nn3)CC2)n1` the Potency was active: 0.37 µM.
With `Cc1ccc([N+](=O)[O-])cc1NC(=S)NCCc1ccccc1` the Potency was active: 13.1 µM.
In the case of `Cc1ccc(C(=O)NCCN2C3=NC[C@H](C)N3C[C@H]2Cc2ccc(O)cc2)cc1Br`, the Potency was active: 13.1 µM.
For `Cc1c(O)ccc2c(=O)c(Oc3ccccc3)coc12`, the “activity change, negative = inhibition” value was inactive: 17.2%.
For `CSc1n[nH]c(-c2sccc2OCc2ccc(C)cc2)n1`, the Potency was active: 4.15 µM.
For `COCCCNC(=O)C1CC(=O)N(CCc2ccc(F)cc2)C1` (stereo unspecified), the “activity change, negative = inhibition” value was inactive: 23.2%.
With `Cc1nn(-c2ccccn2)c2c1C(=O)CC(C)(C)C2Br` (stereo unspecified) the Potency was inconclusive: 18.5 µM [inhibitor, single point].
With `CC(C)(C)c1cc(Cl)ccc1OCCn1ccnc1` the Potency was inconclusive: 4.15 µM [inhibitor, single point].
With `COc1ccc(C=O)cc1CSc1ccccn1` the “activity change, negative = inhibition” value was inactive: 54.3%.
With `CCC(CC)NC(=O)c1ccc(Cl)cc1` the Potency was inconclusive: 11.7 µM [inhibitor, partial curve, poor fit].
For `COc1ccc(C)cc1NC(=O)CN(Cc1nnc(-c2ccc(Cl)cc2)o1)C1CCCC1`, the Potency was inconclusive: 11.7 µM [inhibitor, single point].
For `COc1cccc(C(=O)NC2CC3CCCC(C2)N3S(=O)(=O)c2ccccc2)c1` (stereo unspecified), the Potency was inconclusive: 6.57 µM [inhibitor, partial curve].
For `O=C(O)c1cccc(-c2nc(-c3ccccc3C(F)(F)F)no2)c1`, the Potency was inconclusive: 5.22 µM [inhibitor, partial curve, poor fit].
With `CN(CC(=O)Nc1ccc(N2CCOCC2)cc1)C(=O)Cc1ccccc1` the “activity change, negative = inhibition” value was inactive: -24.2%.
In the case of `COc1ccc(N2CCN(C(CNC(=O)OCc3ccccc3)c3ccco3)CC2)cc1` (stereo unspecified), the Potency was inconclusive: 18.5 µM [inhibitor, single point].
For `Cc1[nH]c(N=Nc2ccccc2)nc1N=Nc1ccccc1`, the Potency was active: 9.28 µM.
In the case of `c1ccc(C2=Nc3cccc4cccc(c34)N2)cc1`, the Potency was active: 11.7 µM.
In the case of `CCCc1ccc(-c2csc(NC(=O)C3=COCCO3)n2)cc1`, the “activity change, negative = inhibition” value was inactive: 222%.
With `COc1cccc(NC(=O)CCc2ccccc2)c1` the “activity change, negative = inhibition” value was inactive: 139%.
In the case of `O=C(Nc1ccc2oc(=O)ccc2c1)c1ccco1`, the “activity change, negative = inhibition” value was inactive: -2.8%.
In the case of `NC(N)=NC(=O)Cc1c(Cl)cccc1Cl`, the Potency was active: 1.85 µM.
With `COc1ccccc1NC(=O)C1CCN(S(=O)(=O)c2ccc3c(c2)NC(=O)CO3)CC1` the “activity change, negative = inhibition” value was inactive: -2.15%.
